{
  "source": "PubChem BioAssay AID504467",
  "about": "(National Center for Advancing Translational Sciences (NCATS), 2011)",
  "note": "Out of some 330,000 compounds screened, about 7,700 (2.3%) were called active. Inconclusive results, whose numbers are uncertain, are shown with a selection of clear calls. The call rests on the fitted dose curve; in most records, active means well fitted inhibition curve with a large enough effect; inconclusive means small, poorly fitted or top-dose-only effect, or effect the other way; inactive means flat fitted curve, though single readings scatter. Potencies of inconclusive entries are doubtful fits and often do not repeat. Potency means the concentration at half of the fitted maximal effect.",
  "data": [
    {"experiment": "qHTS screen for small molecules that inhibit ELG1-dependent DNA repair in human embryonic kidney (HEK293T) cells expressing luciferase-tagged ELG1; further: nearly all actives have a fitted effect of over 55% in size", "conditions": "HEK293T ELG1-luciferase reporter, luminescence, 16 h, DNA damage induced by 5-fluorouridine; series mostly up to 46.1 µM", "outline": "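5-Fluorouridine DNA damage + compound/DMSO, 2,000 cells/well, 16 h, 37 °C/5% CO2. ONE-Glo, 30 min RT, luminescence. Readout = decrease in reporter signal.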", "values": [
      {"smiles": "O=C(CCCC(=O)NNC(=O)Nc1ccccc1)NNC(=O)Nc1ccccc1", "Potency": "inactive"},
      {"smiles": "Cc1c(NC(=O)COc2c(F)c(F)c(F)c(F)c2F)c(=O)n(-c2ccccc2)n1C", "Potency": "inactive"},
      {"smiles": "CC(NC(=O)COC(=O)CN1C(=O)C2CCCCC2C1=O)c1ccccc1", "note": "(stereo not given)", "Potency": "inactive"},
      {"smiles": "CCOC(=O)C1=C(COC(=O)CCOc2ccc(C)cc2)NC(=O)NC1C", "note": "(stereo not given)", "Potency": "active: 25.9 µM"},
      {"smiles": "Oc1c(N=Nc2ccc(F)cc2)ccc2ccccc12", "Potency": "inconclusive: 8.2 µM [activator, partial curve]"},
      {"smiles": "O=C(Cn1nnc(-c2cccs2)n1)N1CCc2ccccc2C1", "Potency": "inconclusive: 16.4 µM [activator, partial curve, poor fit]"},
      {"smiles": "CCOc1ccc2nc(SCCNS(=O)(=O)c3ccccc3)sc2c1", "Potency": "inconclusive: 29.1 µM [inhibitor, single point]"},
      {"smiles": "CCCS(=O)(=O)c1nc(S(=O)(=O)c2ccc(C)cc2)c(NCc2ccccn2)s1", "Potency": "inactive"},
      {"smiles": "CC(C)OC(=O)CN1C(=O)C(C)(C)Oc2ccc(C(=O)NC3CC3)cc21", "Potency": "inconclusive: 35.5 µM [inhibitor, single point]"},
      {"smiles": "CCC1CSC(Nc2ccc(C(=O)/C=C/c3ccc(OC)c(OC)c3)cc2)=N1", "note": "(stereo not given)", "Potency": "active: 20.6 µM"},
      {"smiles": "CCN(CC)CCN(Cc1cc2cc3c(cc2[nH]c1=O)OCCO3)C(=S)NCCCOC", "Potency": "inactive"},
      {"smiles": "Cc1cc(C)n(C(=O)c2ccc(C)c(Br)c2)n1", "Potency": "inconclusive: 32.6 µM [activator, partial curve, poor fit]"},
      {"smiles": "CCOc1ccc(OCC)c(NC(=O)CSc2nc3cccnc3n2C)c1", "Potency": "inconclusive: 29.1 µM [inhibitor, single point]"},
      {"smiles": "O=C(OCC(=O)c1c[nH]c2ccccc12)c1cccc(O)c1", "Potency": "inconclusive: 6.51 µM [activator, full curve]"},
      {"smiles": "COc1ccc(C(=O)COC(=O)C(CCCCN2C(=O)C3C4C=CC(C4)C3C2=O)N2C(=O)C3C4C=CC(C4)C3C2=O)cc1", "note": "(stereo not given)", "Potency": "active: 5.8 µM"},
      {"smiles": "O=C(CSc1nc2nn(-c3ccccc3)c(=O)c-2c2n1CCCCC2)c1ccc(OC(F)F)cc1", "Potency": "inconclusive: 14.6 µM [inhibitor, partial curve, poor fit]"},
      {"smiles": "O=C(CSc1n[nH]c(=O)[nH]c1=O)N/N=C/c1ccccc1O", "Potency": "inactive"},
      {"smiles": "CCOP(=O)(OCC)c1nc(-c2ccccc2)oc1N1CCCCC1", "Potency": "inactive"},
      {"smiles": "CSc1ccc(CCNC(=O)C2CCCN(c3ncnc4c3nc3n4CCCCC3)C2)cc1", "note": "(stereo not given)", "Potency": "active: 8.2 µM"},
      {"smiles": "Cc1ccc(C)c2[nH]c(=O)c(CN(Cc3ccco3)S(=O)(=O)c3ccc4c(c3)OCCO4)cc12", "Potency": "inconclusive: 5.8 µM [inhibitor, single point]"}
    ]}
  ]
}
